± gives the standard deviation of the averaged measurements. The list shows a part of the results.
Compound: Nc1nc2c(ncn2[C@@H]2O[C@H](COP(=O)(O)OP(=O)(O)OP(=O)(O)O)[C@@H](O)[C@H]2O)c(=O)[nH]1 [guanosine triphosphate]
Assay: NP40-soluble protein abundance relative to vehicle (solubility fold change) (ratio); higher = more soluble protein in presence of GTP
Description: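 Solubility proteome profiling in Jurkat crude lysate. Lysate was treated with Mg-GTP (0.1-10 mM) for 10 min at room temperature and 3 min at 37 °C, then solubilised with 0.8% NP40 and benzonase, followed by ultracentrifugation. Proteins were quantified by TMT10 LC-MS/MS; the value is the NP40-soluble abundance relative to the NP40-processed vehicle, from 3 independent experiments.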

Chains of the proteins cited; added tags and fusions are not shown. Lines headed by an entry give the natural chain unless they say otherwise; changes in a name come on top.
UniProt O00754: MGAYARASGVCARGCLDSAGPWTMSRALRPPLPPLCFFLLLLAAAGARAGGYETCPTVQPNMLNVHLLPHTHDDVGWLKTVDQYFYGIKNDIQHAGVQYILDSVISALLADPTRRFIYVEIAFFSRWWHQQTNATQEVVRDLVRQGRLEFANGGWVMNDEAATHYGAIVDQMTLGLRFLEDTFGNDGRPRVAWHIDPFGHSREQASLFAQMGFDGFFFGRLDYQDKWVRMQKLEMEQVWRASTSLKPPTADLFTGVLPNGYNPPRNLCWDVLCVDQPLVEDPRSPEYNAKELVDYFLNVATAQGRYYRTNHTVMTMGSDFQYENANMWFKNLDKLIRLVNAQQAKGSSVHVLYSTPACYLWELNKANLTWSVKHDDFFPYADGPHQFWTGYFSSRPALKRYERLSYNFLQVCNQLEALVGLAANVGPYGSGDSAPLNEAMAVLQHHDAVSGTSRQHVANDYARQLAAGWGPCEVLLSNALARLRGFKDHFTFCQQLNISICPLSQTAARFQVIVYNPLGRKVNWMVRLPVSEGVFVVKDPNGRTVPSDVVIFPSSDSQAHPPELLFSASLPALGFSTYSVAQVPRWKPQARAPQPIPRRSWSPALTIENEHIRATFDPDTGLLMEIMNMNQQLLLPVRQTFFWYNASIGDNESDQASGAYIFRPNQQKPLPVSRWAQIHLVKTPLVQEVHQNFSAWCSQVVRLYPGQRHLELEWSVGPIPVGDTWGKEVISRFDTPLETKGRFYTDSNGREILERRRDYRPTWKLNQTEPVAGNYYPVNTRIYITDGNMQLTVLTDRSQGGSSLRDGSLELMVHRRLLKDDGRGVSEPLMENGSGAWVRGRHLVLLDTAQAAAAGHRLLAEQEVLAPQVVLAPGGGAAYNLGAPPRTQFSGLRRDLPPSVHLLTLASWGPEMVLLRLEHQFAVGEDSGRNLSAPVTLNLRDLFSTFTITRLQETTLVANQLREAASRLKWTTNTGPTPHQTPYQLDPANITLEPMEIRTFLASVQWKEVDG
UniProt O00233: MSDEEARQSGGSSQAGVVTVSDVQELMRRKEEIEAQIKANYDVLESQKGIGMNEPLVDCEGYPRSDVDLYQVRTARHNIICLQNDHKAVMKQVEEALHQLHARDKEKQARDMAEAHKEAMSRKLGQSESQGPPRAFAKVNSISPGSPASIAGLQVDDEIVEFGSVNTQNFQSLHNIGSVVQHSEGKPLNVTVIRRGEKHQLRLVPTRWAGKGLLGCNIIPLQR
UniProt O60313: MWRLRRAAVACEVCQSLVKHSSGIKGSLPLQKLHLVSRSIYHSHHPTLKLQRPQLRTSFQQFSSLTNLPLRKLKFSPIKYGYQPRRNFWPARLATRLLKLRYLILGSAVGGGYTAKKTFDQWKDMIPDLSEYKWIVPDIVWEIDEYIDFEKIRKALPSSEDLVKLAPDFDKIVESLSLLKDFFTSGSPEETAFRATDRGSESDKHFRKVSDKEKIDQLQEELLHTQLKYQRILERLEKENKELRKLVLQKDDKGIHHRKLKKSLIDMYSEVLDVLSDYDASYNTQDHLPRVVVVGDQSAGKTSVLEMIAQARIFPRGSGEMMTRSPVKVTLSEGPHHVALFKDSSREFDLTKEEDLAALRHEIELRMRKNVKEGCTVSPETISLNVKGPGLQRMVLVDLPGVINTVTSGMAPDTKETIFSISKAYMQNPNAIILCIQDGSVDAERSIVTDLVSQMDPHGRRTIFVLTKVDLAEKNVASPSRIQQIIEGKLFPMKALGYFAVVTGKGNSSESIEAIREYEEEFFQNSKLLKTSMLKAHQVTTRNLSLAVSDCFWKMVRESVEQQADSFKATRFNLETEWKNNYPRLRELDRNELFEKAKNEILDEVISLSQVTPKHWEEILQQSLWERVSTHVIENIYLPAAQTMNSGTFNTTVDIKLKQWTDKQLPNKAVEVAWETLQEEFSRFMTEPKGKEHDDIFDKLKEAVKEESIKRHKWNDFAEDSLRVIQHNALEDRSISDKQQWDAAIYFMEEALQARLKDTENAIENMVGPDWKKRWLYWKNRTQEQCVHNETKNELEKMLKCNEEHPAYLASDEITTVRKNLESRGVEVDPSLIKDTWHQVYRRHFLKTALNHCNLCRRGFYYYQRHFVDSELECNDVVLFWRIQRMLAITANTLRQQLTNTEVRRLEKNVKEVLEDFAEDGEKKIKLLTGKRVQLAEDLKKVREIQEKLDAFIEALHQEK
UniProt O43164: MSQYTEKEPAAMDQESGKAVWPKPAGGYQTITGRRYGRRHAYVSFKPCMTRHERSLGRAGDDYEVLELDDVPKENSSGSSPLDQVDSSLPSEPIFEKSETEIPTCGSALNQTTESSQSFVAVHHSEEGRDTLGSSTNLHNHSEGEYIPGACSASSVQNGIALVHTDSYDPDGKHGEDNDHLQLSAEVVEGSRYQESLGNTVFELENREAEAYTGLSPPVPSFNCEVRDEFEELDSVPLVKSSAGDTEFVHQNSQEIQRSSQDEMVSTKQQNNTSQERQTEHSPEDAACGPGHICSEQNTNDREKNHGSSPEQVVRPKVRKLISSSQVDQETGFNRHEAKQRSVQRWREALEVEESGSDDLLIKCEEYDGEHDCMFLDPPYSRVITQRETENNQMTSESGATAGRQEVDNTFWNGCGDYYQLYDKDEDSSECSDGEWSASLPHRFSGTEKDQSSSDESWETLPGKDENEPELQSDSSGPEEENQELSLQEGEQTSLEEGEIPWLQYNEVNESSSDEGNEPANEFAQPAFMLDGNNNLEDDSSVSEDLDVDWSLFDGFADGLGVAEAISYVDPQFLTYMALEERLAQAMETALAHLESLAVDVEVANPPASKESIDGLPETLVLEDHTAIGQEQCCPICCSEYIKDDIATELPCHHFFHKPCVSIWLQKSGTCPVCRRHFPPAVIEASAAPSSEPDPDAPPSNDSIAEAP

Target	NP40-soluble protein abundance (concentration: 0.1mM)	NP40-soluble protein abundance (concentration: 0.5mM)	NP40-soluble protein abundance (concentration: 1mM)	NP40-soluble protein abundance (concentration: 2mM)	NP40-soluble protein abundance (concentration: 4mM)	NP40-soluble protein abundance (concentration: 6mM)	NP40-soluble protein abundance (concentration: 8mM)	NP40-soluble protein abundance (concentration: 10mM)
MAN2B1 (UniProt O00754)	1.05 ± 0.022	1.03 ± 0.095	0.99 ± 0.066	0.959 ± 0.093	0.973 ± 0.037	0.972 ± 0.051	0.918 ± 0.027	0.941 ± 0.028
PSMD9 (UniProt O00233)	0.902 ± 0.066	0.916 ± 0.11	0.935 ± 0.071	0.917 ± 0.1	0.903 ± 0.065	0.913 ± 0.082	0.909 ± 0.069	0.93 ± 0.076
UniProt O60313 and related entries	1.02 ± 0.023	1.02 ± 0.017	0.963 ± 0.03	0.964 ± 0.016	0.947 ± 0.022	0.936 ± 0.021	0.92 ± 0.048	0.895 ± 0.054
MRPS12 (UniProt O15235)	1.11 ± 0.14	1.23 ± 0.26	1.34 ± 0.37	1.47 ± 0.48	1.51 ± 0.47	1.44 ± 0.45	1.38 ± 0.44	1.3 ± 0.43
UniProt O43164 and related entries	1.01 ± 0.032	0.981 ± 0.039	0.998 ± 0.061	0.993 ± 0.053	0.958 ± 0.029	0.943 ± 0.041	0.97 ± 0.053	0.972 ± 0.026
